# Test results as given in US11400138B2, “Method for improving skin condition with bioactive compound” (TCI CO., LTD., priority 2020, dated 2022).
# Some of these results come from one statement about several compounds together.
# Test system: MMP2 gene
# Test: MMP2 gene expression in human fibroblasts (CCD-966SK), qPCR
# Assay type: cell-based
# Details: 12.5 μg synthesized peptide per 1 mL cell culture medium, 24 h, 37° C.
# Description: In order to confirm the effect of each of the amino acid sequences on gene expression in cells, human fibroblasts (CCD-966SK) and individual peptides were co-cultured, and then, gene expression in the cells was analyzed. 11 types of synthesized peptides were respectively subjected to cell experiments. In addition, the amino acid sequences of 11 types of synthesized peptides were respectively SEQ ID NO: 1, SEQ ID NO: 2, SEQ ID NO: 3, SEQ ID NO: 4, SEQ ID NO: 5, SEQ ID NO: 6, SEQ ID NO: 7, SEQ ID NO: 8, SEQ ID NO: 9, SEQ ID NO: 10 and SEQ ID NO: 11. Hereafter, the sequence numbers SEQ ID NO: 1 to SEQ ID NO: 11 will be referred to as groups.
# Cell gene expression test refers to that after the human fibroblasts (purchased from Food Industry Research and Development Institute) and samples to be tested (such as peptides or compositions) were co-cultured, then, RNA in the cells was collected for analysis. Referring to Table 3, the gene expression test groups were divided into 13 groups. 11 groups therein were peptide experiment groups (Experiment group A to Experiment group K), 1 group was a composition experiment group (Experiment group L), and 1 group was a control group. In addition, each group was co-cultured with 1×10^5 human fibroblasts in a cell culture plate containing 2 mL of cell culture medium (X-VIVO™ 10). Experiment group A to Experiment group K respectively corresponded to 11 groups of peptide experiment groups of 11 types of synthesized peptides (SEQ ID NO: 1, SEQ ID NO: 2, SEQ ID NO: 3, SEQ ID NO: 4, SEQ ID NO: 5, SEQ ID NO: 6, SEQ ID NO: 7, SEQ ID NO: 8, SEQ ID NO: 9, SEQ ID NO: 10 and SEQ ID NO: 11) prepared according to Example III. Experiment group L was a composition experiment group added with the composition. In addition, the composition was identified in Example II to be tilapia fish skin collagen peptide powder (purchased from LAPI, Italy) including […] of peptides (i.e., SEQ ID NO: 1, SEQ ID NO: 2, SEQ ID NO: 3, SEQ ID NO: 4, SEQ ID NO: 5 and SEQ ID NO: 6). No peptide or composition was added in Control group.
# For each group of peptide experiment groups (corresponding to Experiment group A to Experiment group K), according to a proportion of 12.5 μg of synthesized peptide per 1 mL of cell culture medium, the human fibroblasts were cultured for 24 h at 37° C. For the composition experiment group (corresponding to Experiment group L), according to a proportion of 100 mg of composition per 1 mL of cell culture medium, the human fibroblasts were cultured for 24 h. For Control group, no peptide was added, and the human fibroblasts were cultured for 24 h in a pure cell culture medium. In addition, after culture for 24 h, the peptide-containing cell culture medium or the pure culture medium was removed from each group, and cells in each group were washed by a phosphate buffer solution (PBS) so as to remove the residual culture medium. The washed cells were spun down and were subjected to cell lysis by a cell lysis solution (purchased from Geneaid company, Taiwan). Then, RNA in each group of cells was extracted by an RNA extraction kit (purchased from Geneaid company, Taiwan). Next, the extracted RNA was subjected to inverse transcription to obtain cDNA by a cDNA synthesis reagent (purchased from Geneaid company, Taiwan). In addition, the intracellular gene expression was observed by a polymerase chain reaction (PCR) instrument using different primers (as shown in Table 3). In addition, the primers firstly reacted by a green fluorescent dye of SYBR green dye (Applied Biosystem), and quantification of gene expression was performed by a 2-ΔΔCt method. It should be noted that the gene expression in the drawings corresponding to the experiments was shown in relative fold or percentage, wherein standard deviations were calculated by an STDEV formula of Excel software, and statistically significant differences were analyzed by one-tailed student t-test in the Excel software. […]
Substance,MMP2 gene expression inhibition,MMP2 gene expression percentage (Control group regarded as 100%)
"AVNGLTLAGGRGLNTGAALT (listed as Oreochromis mossambicus) [SEQ ID NO: 5, synthesized peptide of tilapia skin, Collagen, type VI]",≥ 90%,≤ 10%
"DQGIRLL (listed as Oreochromis mossambicus) [SEQ ID NO: 10, synthesized peptide of Plectin b]",≥ 90%,≤ 10%
"GLPGVQGNI (listed as Oreochromis mossambicus) [SEQ ID NO: 2, synthesized peptide of tilapia skin, Collagen, type IV]",≥ 90%,≤ 10%
